PubChem BioAssay AID493246 – Drosophila RNAi Screening Center | 2011
Purpose: 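Genes fly cells need to grow and stay alive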 (primary screen). System: Drosophila Kc and S2R+ cells. Reagents: long dsRNA against Drosophila genes. Detection: 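Raw, unnormalised count of remaining cells in each well; per-plate z-scores of cell number underlie the calls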. Scale: Kc cell number and S2R+ cell number: higher = more cells remaining. Call rule: 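Active when the per-plate z-score of cell number is 3 or more in the direction of fewer cells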.
The deposit covers about 21,000 reagents; this is an unselected part of those with a known target gene and a result. In the full data, 429 (2%) were called active. 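Values are raw and not normalised between plates; calls rest on per-plate z-scores that were not deposited.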 A plus sign joins genes that one reagent is predicted to hit. Not stated in the record: the amount of reagent, the time to read-out.

predicted target | DRSC id | Kc cell number, rep 1 | Kc cell number, rep 2 | S2R+ cell number, rep 1 | S2R+ cell number, rep 2 | outcome
Lap1 | DRSC07454 | 1.52e6 | 1.55e6 | 1.04e6 | 1.23e6 | inactive
Start1 | DRSC04384 | 1.74e6 | 1.82e6 | 1.25e6 | 1.32e6 | inactive
CG8861 | DRSC12731 | 1.63e6 | 1.65e6 | 1.13e6 | 1.38e6 | inactive
CG8861 | DRSC16449 | 1.75e6 | 1.72e6 | 1.27e6 | 1.37e6 | inactive
CG6908 | DRSC16131 | 1.53e6 | 1.50e6 | 1.15e6 | 1.20e6 | inactive
Ubx (Ultrabithorax) | DRSC16891 | 1.36e6 | 1.30e6 | 1.01e6 | 1.05e6 | inactive
raptor | DRSC18359 | 1.49e6 | 1.49e6 | 8.99e5 | 1.06e6 | inactive
CG11570 | DRSC09844 | 1.32e6 | 1.24e6 | 1.20e6 | 1.33e6 | inactive
CG4115 | DRSC15545 | 1.61e6 | 1.53e6 | 1.27e6 | 1.30e6 | inactive
CG12118 | DRSC17813 | 5.91e5 | – | 8.99e5 | – | inactive
Oatp33Ea (Organic anion transporting polypeptide 33Ea) | DRSC02859 | 1.25e6 | 1.30e6 | 8.70e5 | 9.24e5 | inactive
Naprt (Nicotinate phosphoribosyltransferase) | DRSC00630 | 1.34e6 | 1.37e6 | 1.17e6 | 1.22e6 | inactive
CG9147 | DRSC03147 | 1.54e6 | 1.40e6 | 1.15e6 | 1.34e6 | inactive
Gbp3 (Growth-blocking peptide 3) | DRSC15206 | 1.55e6 | 1.53e6 | 1.04e6 | 1.11e6 | inactive
CG17801 | DRSC15273 | 1.46e6 | 1.46e6 | 1.06e6 | 1.18e6 | inactive
MED25 (Mediator complex subunit 25) | DRSC14483 | 7.17e5 | 1.08e6 | 3.58e5 | 4.72e5 | active
CG11257 | DRSC06068 | 1.44e6 | 1.55e6 | 1.06e6 | 1.28e6 | inactive
CG17065 | DRSC20544 | 1.57e6 | 1.64e6 | 1.10e6 | 1.23e6 | inactive
Cpr73D (Cuticular protein 73D) | DRSC11084 | 1.58e6 | 1.60e6 | 1.36e6 | 1.35e6 | inactive
Dbp73D (Dead box protein 73D) | DRSC11142 | 1.82e6 | 1.72e6 | 1.35e6 | 1.42e6 | inactive
5-HT7 (5-hydroxytryptamine (serotonin) receptor 7) | DRSC12635 | 5.62e5 | – | 8.77e5 | – | inactive
SelG (Selenoprotein G) | DRSC19808 | 6.09e5 | – | 8.78e5 | – | inactive
CG31957 | DRSC00207 | 1.44e6 | 1.50e6 | 1.04e6 | 1.15e6 | inactive
Mal-A1 (Maltase A1) | DRSC07461 | 1.53e6 | 1.59e6 | 1.26e6 | 1.38e6 | inactive
Dgkepsilon (Diacyl glycerol kinase epsilon) | DRSC07399 | 1.36e6 | 1.49e6 | 1.17e6 | 1.30e6 | inactive
CG13398 | DRSC02268 | 1.60e6 | 1.62e6 | 1.25e6 | 1.49e6 | inactive
CG7453 | DRSC20046 | 1.56e6 | 1.60e6 | 1.11e6 | 1.21e6 | inactive
CG13380 + CG4174 | DRSC09988 | 1.55e6 | 1.53e6 | 1.29e6 | 1.30e6 | inactive
CG13380 + CG4174 | DRSC10406 | 1.35e6 | 1.52e6 | 1.30e6 | 1.37e6 | inactive
CG17982 | DRSC18143 | 1.48e6 | 1.43e6 | 1.03e6 | 1.09e6 | inactive
Psf2 (Partner of Sld Five 2) | DRSC00516 | 1.68e6 | 1.66e6 | 1.22e6 | 1.44e6 | inactive
CG14658 | DRSC12244 | 1.91e6 | 1.90e6 | 1.29e6 | 1.46e6 | inactive
Ykt6 (YKT6 v-SNARE) | DRSC17970 | 5.92e5 | – | 9.33e5 | – | inactive
Ost48 (Oligosaccharyltransferase 48kD subunit) | DRSC18693 | 6.10e5 | – | 9.21e5 | – | inactive
Fer1 (48 related 1) | DRSC12507 | 1.72e6 | 1.85e6 | 1.37e6 | 1.59e6 | inactive
Fer1 (48 related 1) | DRSC12555 | 1.65e6 | 2.02e6 | 1.15e6 | 1.20e6 | inactive
asRNA:CR42743 + CG34162 | DRSC01190 | 1.44e6 | 1.49e6 | 9.55e5 | 1.06e6 | inactive

The list goes on; the last 2 above are carried over.
predicted target | DRSC id | Kc cell number, rep 1 | Kc cell number, rep 2 | S2R+ cell number, rep 1 | S2R+ cell number, rep 2 | outcome
Fer1 (48 related 1) | DRSC12555 | 1.65e6 | 2.02e6 | 1.15e6 | 1.20e6 | inactive
asRNA:CR42743 + CG34162 | DRSC01190 | 1.44e6 | 1.49e6 | 9.55e5 | 1.06e6 | inactive
JMJD5 (Jumonji domain containing 5) | DRSC08372 | 1.50e6 | 1.16e6 | 1.10e6 | 1.36e6 | inactive
ABCB7 (ATP binding cassette subfamily B member 7) | DRSC08603 | 1.41e6 | 1.38e6 | 1.03e6 | 1.24e6 | inactive
CG32112 | DRSC09815 | 1.53e6 | 1.52e6 | 1.14e6 | 1.30e6 | inactive
Ube4A (Ubiquitination factor E4A) | DRSC02004 | 1.29e6 | 1.35e6 | 5.59e5 | 6.16e5 | inactive
CG15021 | DRSC08475 | 1.72e6 | 1.61e6 | 1.14e6 | 1.28e6 | inactive
CG15923 | DRSC15129 | 1.46e6 | 1.67e6 | 1.13e6 | 1.20e6 | inactive
jus (julius seizure) | DRSC14861 | 1.27e6 | 1.28e6 | 7.00e5 | 7.55e5 | inactive
jus (julius seizure) | DRSC14862 | 1.45e6 | 1.50e6 | 1.02e6 | 1.14e6 | inactive
CG12010 | DRSC08218 | 1.43e6 | 1.29e6 | 1.03e6 | 1.23e6 | inactive
CG32054 | DRSC10684 | 1.75e6 | 1.81e6 | 1.38e6 | 1.49e6 | inactive
pbl (pebble) | DRSC11381 | 1.38e6 | 1.43e6 | 1.29e6 | 1.24e6 | inactive
Dph5 (Diphthamide methyltransferase) | DRSC16653 | 1.49e6 | 1.55e6 | 1.16e6 | 1.24e6 | inactive
CG1636 | DRSC18111 | 1.61e6 | 1.52e6 | 1.11e6 | 1.22e6 | inactive
CG13876 | DRSC08346 | 1.42e6 | 1.22e6 | 1.02e6 | 1.24e6 | inactive
sosie | DRSC14636 | 1.57e6 | 1.51e6 | 9.71e5 | 1.10e6 | inactive
Ugt302E1 (UDP-glycosyltransferase family 302 member E1) | DRSC15635 | 1.53e6 | 1.45e6 | 1.22e6 | 1.33e6 | inactive
CG4374 | DRSC15570 | 1.48e6 | 1.71e6 | 1.12e6 | 1.19e6 | inactive
rnh1 (ribonuclease H1) | DRSC07673 | 1.42e6 | 1.52e6 | 1.15e6 | 1.20e6 | inactive
CG12963 | DRSC06265 | 1.71e6 | 1.68e6 | 1.26e6 | 1.46e6 | inactive
LysD + LysC (retired record) | DRSC08674 | 1.42e6 | 1.36e6 | 9.98e5 | 1.28e6 | inactive
Tsc1 | DRSC16890 | 1.52e6 | 1.56e6 | 1.12e6 | 1.15e6 | inactive
CG15628 | DRSC00256 | 1.15e6 | 1.19e6 | 7.16e5 | 8.33e5 | active
CG15628 | DRSC00463 | 1.47e6 | 1.40e6 | 1.19e6 | 1.33e6 | inactive
